Our source for the T/C and survivor count values is PubChem BioAssay AID248 (DTP/NCI, 2004).

The assay relates to L1210 leukemia ip in BDF1 mice, survival T/C. The experiment in a line: NCI In Vivo Anticancer Drug Screen. Data for tumor model L1210 Leukemia (intraperitoneal) in B6D2F1 (BDF1) mice. The following applies: T/C endpoint: mean survival time, higher T/C = longer survival.
The mark [1] stands for this setting: dose: 400.0 mg/kg/injection, schedule: Q01DX009 (ip), vehicle: Klucel (hydroxypropylcellulose) (HPC).
[2] abbreviates: dose: 100.0 mg/kg/injection, schedule: Q01DX009 (ip), vehicle: Klucel (hydroxypropylcellulose) (HPC).
Setting [3] is: dose: 100.0 mg/kg/injection, schedule: Q04DX003 (ip), vehicle: saline with Tween-80.
[4] abbreviates: dose: 200.0 mg/kg/injection, schedule: Q04DX003 (ip), vehicle: saline with Tween-80.
Setting [5] is: dose: 400.0 mg/kg/injection, schedule: Q04DX003 (ip), vehicle: saline with Tween-80.
[6] abbreviates: dose: 100.0 mg/kg/injection, schedule: Q01DX009 (ip), vehicle: saline with Tween-80.
The mark [7] stands for this setting: dose: 200.0 mg/kg/injection, schedule: Q01DX009 (ip), vehicle: saline with Tween-80.
The mark [8] stands for this setting: dose: 400.0 mg/kg/injection, schedule: Q04DX002 (ip), vehicle: Klucel (hydroxypropylcellulose) (HPC).

The list is a part of this screen's results and no random one: it gathers tests that were run many times, whatever their T/C, doses with no T/C, and many T/C values between a quarter and a half above the control. Other doses and runs of a compound stand elsewhere. T/C is the treated group as % of the vehicle group. Some doses have a count of surviving animals in place of a T/C: the source holds a T/C of zero for them, seemingly a mark for toxic or unscored doses. Some survivor counts are full or nearly so, which does not show that the dose was tolerated: survival well below the control is almost never listed, so the zero probably covers shortened survival too. Survivors were counted at the toxicity check, usually on the fifth day, unless a day is given; later deaths do not show. Schedules are NCI's codes, taken here to give the interval after Q, in days (D) or hours (H), and the number of doses after X. Some schedule codes hold Z or #, which are not explained here. Some doses were run more than once; the results are listed from low to high. For survival time, the PubChem record calls one and a half times the control and up active, and a quarter to a half above the control has no call in these data; cut-offs in other NCI protocols can differ. Some T/C values carry the count of animals alive at the toxicity check (mostly the fifth day); where none is given, no animal had died by that day.

In the case of `COCCCN=C(N)c1ccc(NC(=O)c2ccc(C(=O)Nc3ccc(C(N)=NCCCOC)cc3)cc2)cc1`, the T/C reads like this: (dose: 1.5 mg/kg/injection, schedule: Q01DX Z (ip), vehicle: saline) 134 % of control; (dose: 2.0 mg/kg/injection, schedule: Q01DX Z (ip), vehicle: saline) 147 % of control; (dose: 8.0 mg/kg/injection, schedule: Q01DX Z (ip), vehicle: saline) 141 % of control; (dose: 8.0 mg/kg/injection, schedule: Q02DX004 (im), vehicle: saline) 130 % of control; (dose: 12.0 mg/kg/injection, schedule: Q01DX Z (ip), vehicle: saline) 136 % of control; (dose: 16.0 mg/kg/injection, schedule: Q01DX006 (iv), vehicle: saline) 129 and 133 % of control [5 of 6 alive]. The T/C (dose: 16.0 mg/kg/injection, schedule: Q02DX004 (im), vehicle: saline) was 138 % of control and the T/C (dose: 500.0 mg/kg/injection, schedule: Q## X010 (oral), vehicle: saline) is 143 % of control. In addition, the survivor count is, setting by setting: (dose: 24.0 mg/kg/injection, schedule: Q01DX Z (ip), vehicle: saline) 6 of 6; (dose: 30.0 mg/kg/injection, schedule: Q01DX Z (ip), vehicle: saline) 6 of 6; (dose: 32.0 mg/kg/injection, schedule: Q01DX006 (iv), vehicle: saline) 0 of 6; (dose: 60.0 mg/kg/injection, schedule: Q01DX Z (ip), vehicle: saline) 1 of 6; (dose: 64.0 mg/kg/injection, schedule: Q01DX006 (iv), vehicle: saline) 0 of 6; (dose: 64.0 mg/kg/injection, schedule: Q02DX004 (im), vehicle: saline) 5 of 6. Moreover, the survivor count is, setting by setting: (dose: 120.0 mg/kg/injection, schedule: Q01DX Z (ip), vehicle: saline) 0 of 6; (dose: 128.0 mg/kg/injection, schedule: Q01DX006 (iv), vehicle: saline) 0 of 6; (dose: 128.0 mg/kg/injection, schedule: Q02DX004 (im), vehicle: saline) 3 of 6.
Take `CCCCC(CC)CC1CCCCC1O` (stereo unspecified): the survivor count under setting [1] is on record as 3 of 6.
For `CCCCCCCCS.[Ni]`, the survivor count (dose: 200.0 mg/kg/injection, schedule: Q04DX003 (ip), vehicle: saline) is on record as 1 of 6 and the survivor count (dose: 400.0 mg/kg/injection, schedule: Q04DX003 (ip), vehicle: saline) is recorded as 0 of 6.
For the compound `COc1cccc(C2CCN(C)C2)c1` (stereo unspecified), the survivor count runs as follows: (dose: 50.0 mg/kg/injection, schedule: Q01DX009 (ip), vehicle: Klucel (hydroxypropylcellulose) (HPC)) 6 of 6; under setting [2], 0 of 6; (dose: 200.0 mg/kg/injection, schedule: Q01DX009 (ip), vehicle: Klucel (hydroxypropylcellulose) (HPC)) 0 of 6; (dose: 400.0 mg/kg/injection, schedule: Q04DX003 (ip), vehicle: Klucel (hydroxypropylcellulose) (HPC)) 0 of 6.
On to `Cc1cc(=O)[nH]c2c1ccc1[nH]c(=O)cc(C)c12`, for which, for the setting “dose: 200.0 mg/kg/injection, schedule: Q04DX003 (ip), vehicle: Klucel (hydroxypropylcellulose) (HPC)”, the survivor count is recorded as 6 of 6.
As to `O=C1/C(=N/O)Cc2ccccc21`, the survivor count runs as follows: (dose: 25.0 mg/kg/injection, schedule: Q01DX009 (ip), vehicle: water) 3 of 6; (dose: 50.0 mg/kg/injection, schedule: Q01DX009 (ip), vehicle: water) 0 of 6; (dose: 100.0 mg/kg/injection, schedule: Q01DX009 (ip), vehicle: water) 0 of 6; under setting [3], 6 of 6; (dose: 200.0 mg/kg/injection, schedule: Q01DX009 (ip), vehicle: water) 0 of 6; (dose: 400.0 mg/kg/injection, schedule: Q01DX009 (ip), vehicle: water) 0 of 6.
Turning to `NCCSCCN`, the survivor count under setting [1] was 0 of 6.
For `C[N+](C)(C)C1(Cc2ccccc2)c2ccccc2-c2ccccc21`, the survivor count runs as follows: (dose: 100.0 mg/kg/injection, schedule: Q01DX009 (ip), vehicle: saline) 1 of 6; under setting [4], 0 of 6; under setting [5], 0 of 6.
As for `Cc1cc(=O)[nH]c(N/N=C/c2cc(Cl)ccc2O)n1`, the survivor count is, setting by setting: under setting [6], 6 of 6; under setting [7], 5 of 6.
In the case of `CCCC(C#N)(c1ccccc1)c1ccccc1`, the survivor count under setting [1] is given as 2 of 6.
Turning to `Cc1ccc(S(=O)(=O)F)cc1N`, the T/C (dose: 100.0 mg/kg/injection, schedule: Q01DX009 (ip), vehicle: carboxymethylcellulose (CMC)) is 93, 97, 100, 106 % of control [5 of 6 alive]. The survivor count (dose: 200.0 mg/kg/injection, schedule: Q01DX009 (ip), vehicle: carboxymethylcellulose (CMC)) was 0 of 3 and 0 of 6; the survivor count (dose: 400.0 mg/kg/injection, schedule: Q01DX009 (ip), vehicle: carboxymethylcellulose (CMC)) is 0 of 3 and 0 of 6.
On to `CCO/C=C1/C(=O)N(C)c2c1c(=O)n(C)c(=O)n2C`, for which, under setting [8], the survivor count is recorded as 3 of 3.
On to `O=C(CNC(=O)Nc1nccs1)N/N=C/c1cccc([N+](=O)[O-])c1`, for which the survivor count runs as follows: under setting [2], 6 of 6; under setting [1], 6 of 6.
Take `N#CC[CH2][Sn]([I])([c]1ccccc1)[c]1ccccc1`: the survivor count is given as 0 of 3 under setting [3], 0 of 3 under setting [4] and 0 of 3 under setting [5].
Regarding `CCc1ccc(NC(=O)NCCCl)cc1`, the survivor count under setting [8] was 1 of 3.
With `Nc1cc(=O)[nH]c(O)c1C(=O)O`, the survivor count is, setting by setting: under setting [4], 3 of 6; under setting [5], 6 of 6.
Turning to `Cc1cnc(NN)nc1-c1ccccc1O`, the survivor count is recorded as 1 of 3 (dose: 200.0 mg/kg/injection, schedule: Q04DX002 (ip), vehicle: Klucel (hydroxypropylcellulose) (HPC)) and 0 of 3 under setting [8].
As to `CCCCN1C(=O)C=CC1=O`, the survivor count reads like this: (dose: 50.0 mg/kg/injection, schedule: Q01DX009 (ip), vehicle: saline with Tween-80) 0 of 3; under setting [6], 0 of 3; under setting [7], 0 of 3.
In the case of `COC(=O)C(CSCSC)NC(=O)/C=C/c1ccc(C)cc1` (stereo unspecified), the survivor count under setting [4] is reported as 6 of 6.
